PubChem BioAssay AID504834 (National Center for Advancing Translational Sciences (NCATS), 2011)
About 22,000 (6.9%) of roughly 320,000 compounds were called active. The inconclusive results got no clear call from the source; some entries with a clear call stand among them for comparison. Calls come from the whole dose curve; as a rule, active = well fitted inhibition curve with a large enough effect; inconclusive = small, poorly fitted or top-dose-only effect, or another doubt; inactive = no such curve, though single readings can be large or run the other way. Potencies of inconclusive entries are doubtful fits and often do not repeat.

Assay: Primary qHTS for delayed death inhibitors of the malarial parasite plastid, 96 hour incubation
Conditions: P. falciparum luciferase reporter growth; series mostly up to 28.7 µM; activity change, negative = inhibition: at the top concentration
Method in brief: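 Parasite growth measured via integrated firefly luciferase reporter in P. falciparum. Infected erythrocytes at 2% hematocrit, 0.05% parasitemia final were treated 96 hours at 37 C under 5% CO2, and luminescence was read.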
% is set by controls: 0 for no effect and ±100 for the full control effect; potency is the fitted concentration of half-maximal effect.

SMILES | activity change, negative = inhibition | Potency
C=CCNC(=O)C1CCN(c2nc(C)cc(-c3ccccc3)n2)CC1 | inactive: -21.4% [at 5.75 µM] | 
Cc1ccccc1N(C(=O)c1cccs1)c1nc2ccccc2s1 |  | inconclusive: 18.5 µM [inhibitor, single point]
O=C(c1ccc2nsnc2c1)N1CCN(c2ccc([N+](=O)[O-])cc2)CC1 |  | inconclusive: 10.4 µM [inhibitor, partial curve, poor fit]
CCOC(=O)CSc1nnc(-c2ccoc2C)n1-c1ccc(OCC)cc1 |  | inconclusive: 18.5 µM [inhibitor, single point]
Cc1cc(C)c(C(=O)COC(=O)c2cccc(S(=O)(=O)NCc3ccccc3)c2)cc1C | inactive: -0.569% | 
O=P(NS(=O)(=O)c1ccc(Cl)cc1)(Oc1ccccc1)Oc1ccccc1 |  | inconclusive: 11.7 µM [inhibitor, single point]
CCOc1ccc(C(=O)NCC(=O)OCCCC(=O)c2ccc(F)cc2)cc1OCC | inactive: -35.1% | 
C#CCOCCOCCOCCNc1nc(N2CCN(C(=O)[C@H]([C@@H](C)CC)n3cc([C@@H](N)Cc4ccc(O)cc4)nn3)CC2)nc(N2CCN(C(=O)[C@H](Cc3cc4ccccc4[nH]3)n3cc([C@@H](N)CC(C)C)nn3)CC2)n1 |  | inconclusive: 18.5 µM [inhibitor, single point]
N#CCN(C(=O)COC(=O)CCCNC(=O)c1ccc(Cl)cc1)c1ccccc1 | inactive: -22.7% | 
CN(C)C(=O)CSc1nc2ccccc2c(=O)[nH]1 |  | inconclusive: 9.28 µM [inhibitor, single point]
C[n+]1ccn(CC(=O)c2ccc(Cl)cc2)c1 | inactive: 17.3% | 
Cc1cccc(C)c1Nc1c(-c2ccc(N3CCOCC3)cc2)nc2cnccn12 |  | inconclusive: 18.5 µM [inhibitor, single point]
Cc1c(C(=O)Nc2ccc(S(=O)(=O)N3CCOCC3)cc2)cccc1[N+](=O)[O-] |  | inconclusive: 10.4 µM [inhibitor, single point]
CCOC(=O)N1CCN(C(=S)Nc2cc(S(=O)(=O)N3CCOCC3)ccc2Cl)CC1 | inactive: 2.48% | 
O=c1c2ccccc2[nH]c(=S)n1CCCN1CCN(c2ccccc2F)CC1 |  | inconclusive: 2.62 µM [inhibitor, full curve]
FC(F)Sc1nc(-c2ccccc2)c(-c2ccccc2)n1C(F)F |  | active: 3.29 µM
C=CCN1C(=Nc2cccnc2)SCC1(O)c1ccc(C)cc1 (centres undefined) | inactive: 16.1% | 
O=C(CSc1nc2ccccc2c(=O)n1CC1CCCO1)Nc1ccc(F)cc1 (centres undefined) | inactive: -16% | 
CCCCCCc1cc2cc(S(=O)(=O)c3ccc(C)cc3)c(=O)oc2cc1O | inactive: 19.8% | 

Part of the list above in order of heavy-atom count, descending:
SMILES | activity change, negative = inhibition | Potency
Cc1cccc(C)c1Nc1c(-c2ccc(N3CCOCC3)cc2)nc2cnccn12 |  | inconclusive: 18.5 µM [inhibitor, single point]
C=CCNC(=O)C1CCN(c2nc(C)cc(-c3ccccc3)n2)CC1 | inactive: -21.4% [at 5.75 µM] | 
CN(C)C(=O)CSc1nc2ccccc2c(=O)[nH]1 |  | inconclusive: 9.28 µM [inhibitor, single point]
